In the experiment the test system is Staphylococcus epidermidis 1457. Kind of experiment: Antibacterial broth microdilution MIC. Conditions: Staphylococcus epidermidis, 1457, 20 h, read-out: MIC, SE. The experiment is classed as cell-based. A general note: Dilution methods test growth across graded concentrations, often in twofold steps.

Counter-ions that a name gives are not always drawn.

With `CN[C@H](CC(C)C)C(=O)N[C@H]1C(=O)N[C@@H](CC(N)=O)C(=O)N[C@H]2C(=O)N[C@H]3C(=O)N[C@H](C(=O)N[C@H](C(=O)O)c4cc(O)cc(O)c4-c4cc3ccc4O)[C@H](O)c3ccc(c(Cl)c3)Oc3cc2cc(c3O[C@@H]2O[C@H](CO)[C@@H](O)[C@H](O)[C@H]2O[C@H]2C[C@](C)(N)[C@H](O)[C@H](C)O2)Oc2ccc(cc2Cl)[C@H]1O` [Vancomycin, vancomycin hydrochloride, reference compound], the MIC was 1.6 µM.

As usually defined, the MIC is the lowest concentration found to suppress growth.

Source of the values: publication PMC6063800 (Peptides, 2018).
